Drawing on article PMC12636735, this text covers binding for two substances.

Sequences of proteins named here, by UniProt entry; tags and fusion partners are left off.
UniProt Q6NZM9: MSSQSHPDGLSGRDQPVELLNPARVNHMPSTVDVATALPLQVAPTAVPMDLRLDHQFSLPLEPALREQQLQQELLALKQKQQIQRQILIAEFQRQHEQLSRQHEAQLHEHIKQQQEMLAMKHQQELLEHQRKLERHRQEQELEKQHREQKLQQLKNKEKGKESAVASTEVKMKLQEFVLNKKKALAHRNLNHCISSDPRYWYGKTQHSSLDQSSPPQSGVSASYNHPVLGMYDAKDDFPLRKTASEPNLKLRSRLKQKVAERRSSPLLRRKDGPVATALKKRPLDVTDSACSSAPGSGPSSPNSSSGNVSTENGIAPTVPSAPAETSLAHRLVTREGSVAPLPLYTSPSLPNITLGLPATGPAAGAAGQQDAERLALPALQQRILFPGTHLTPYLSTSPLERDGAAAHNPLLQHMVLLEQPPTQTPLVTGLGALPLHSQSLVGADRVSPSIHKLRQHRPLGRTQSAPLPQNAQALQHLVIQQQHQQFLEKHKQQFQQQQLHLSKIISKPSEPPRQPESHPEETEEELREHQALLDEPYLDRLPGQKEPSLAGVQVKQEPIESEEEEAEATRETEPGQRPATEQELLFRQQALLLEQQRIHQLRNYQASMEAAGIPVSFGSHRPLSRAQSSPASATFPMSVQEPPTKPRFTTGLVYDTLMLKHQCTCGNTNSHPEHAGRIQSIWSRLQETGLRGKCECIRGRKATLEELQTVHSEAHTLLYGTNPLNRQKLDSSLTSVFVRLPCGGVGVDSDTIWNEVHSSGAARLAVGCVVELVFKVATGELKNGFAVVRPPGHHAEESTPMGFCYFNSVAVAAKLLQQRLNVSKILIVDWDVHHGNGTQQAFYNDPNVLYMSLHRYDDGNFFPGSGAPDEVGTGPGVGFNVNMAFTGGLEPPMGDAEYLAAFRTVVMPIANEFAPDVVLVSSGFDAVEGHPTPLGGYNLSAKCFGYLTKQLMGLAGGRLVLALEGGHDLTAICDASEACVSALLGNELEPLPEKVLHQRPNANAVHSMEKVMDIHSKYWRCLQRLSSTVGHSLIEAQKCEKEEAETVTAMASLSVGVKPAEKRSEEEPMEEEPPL
UniProt Q9WVH4: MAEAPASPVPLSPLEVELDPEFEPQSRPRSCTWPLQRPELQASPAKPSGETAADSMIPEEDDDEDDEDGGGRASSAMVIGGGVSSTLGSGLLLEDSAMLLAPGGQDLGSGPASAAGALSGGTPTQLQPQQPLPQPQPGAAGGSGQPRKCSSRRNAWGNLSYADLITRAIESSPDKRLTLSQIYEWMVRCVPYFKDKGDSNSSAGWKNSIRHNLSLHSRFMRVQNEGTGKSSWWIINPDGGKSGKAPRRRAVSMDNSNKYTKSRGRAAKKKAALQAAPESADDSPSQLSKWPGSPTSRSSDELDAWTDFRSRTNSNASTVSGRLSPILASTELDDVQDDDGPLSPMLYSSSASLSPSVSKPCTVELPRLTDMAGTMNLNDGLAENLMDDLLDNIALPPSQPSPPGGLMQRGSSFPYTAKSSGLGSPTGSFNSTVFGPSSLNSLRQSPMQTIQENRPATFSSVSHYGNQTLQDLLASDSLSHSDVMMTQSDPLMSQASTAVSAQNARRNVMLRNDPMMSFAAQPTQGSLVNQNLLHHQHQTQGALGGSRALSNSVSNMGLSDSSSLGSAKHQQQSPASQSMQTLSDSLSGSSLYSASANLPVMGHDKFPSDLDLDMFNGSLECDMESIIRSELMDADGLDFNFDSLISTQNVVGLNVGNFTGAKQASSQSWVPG

Assay [1] deals with Histone deacetylase 4 (mouse (endogenous in mTECs)) (UniProt Q6NZM9). As to the kind of experiment: co-IP; lysate of mTECs treated with or without TGF-β1 (5 ng/ml) for 48 hours; IP with Foxo3a antibody or HDAC4 antibody, IgG control; Protein A/G Magnetic Beads, washed five times with PBST (0.05% Tween-20), eluted with 1× SDS loading buffer; immunoblot. In general terms: Immunoblotting shows a protein as a band on a membrane.

The target of assay [2] is Foxo3a (mouse (endogenous in mTECs)) (UniProt Q9WVH4). The description is as above.

These are yes or no findings as the source states them, for the method shown. In cells and extracts the contact can be indirect. Some binding calls cover weakened binding; strength is not graded here.

Take Foxo3a (from UniProt Q9WVH4 1-672): in assay [1], the binding entry is listed as “binds”. Take “Histone deacetylase 4 (from UniProt Q6NZM9 1-1076) (enzyme)”: the binding result in assay [2] is listed as “binds”.
